Experimental data published in US20090263354A1, “Compositions and siRNAs for inhibiting C/EBPbeta” (Yeda Research and Development Co., Ltd., priority 2006, published 2009).
At least one compound was matched to its structure with a doubt left.

Experiments:
[1] = system: WISH cells; test: Reversal of C/EBPβ-induced protection by inhibitors of MDR1, gp130 or AKT; assay type: cell-based, human; conditions: LY294002 (40) added 2 hours before TNF-α 100 ng/ml + IFN-γ 1000 IU/ml, 22 h
[2] = system: C/EBPβ; test: Doxycycline induction of C/EBPβ in B16 Clone F-10.9 cells, RT-PCR and immunoblotting; assay type: cell-based, mouse; conditions: B16 Clone F-10.9 with inducible C/EBPβ vector; doxycycline 1 μg/ml, 24 h
[3] = system: B16 Clone F-10.9 cells; test: Survival of B16 Clone F-10.9 cells induced to express C/EBPβ, crystal violet; assay type: cell-based, mouse; conditions: doxycycline 1 μg/ml, 12 h, then doxorubicin 1.2 μM, 24 h; vs non-induced cells

Row | SMILES | reversal of the protective effect of C/EBPβ [1] | C/EBPβ mRNA (RT-PCR) [2] | C/EBPβ protein (immunoblotting) [2] | protection from apoptosis in cells induced to express C/EBPβ [3]
1 | O=c1cc(N2CCOCC2)oc2c(-c3ccccc3)cccc12 [LY294002] | did not reverse the protective effect |  |  | 
2 | C[C@H]1c2cccc(O)c2C(=O)C2=C(O)[C@]3(O)C(=O)C(C(N)=O)=C(O)[C@@H](N(C)C)[C@@H]3[C@@H](O)[C@@H]21 [doxycycline] |  | significant induction of C/EBPβ mRNA | significant induction of C/EBPβ | significant protection from apoptosis
